In article PMC10404244:
Results are given in words; binding and its absence hold for the method and conditions named. Some binding calls cover weakened binding; strength is not graded here.

By UniProt entry, the sequences of proteins in these tests, tags left out.
UniProt Q9NQT8: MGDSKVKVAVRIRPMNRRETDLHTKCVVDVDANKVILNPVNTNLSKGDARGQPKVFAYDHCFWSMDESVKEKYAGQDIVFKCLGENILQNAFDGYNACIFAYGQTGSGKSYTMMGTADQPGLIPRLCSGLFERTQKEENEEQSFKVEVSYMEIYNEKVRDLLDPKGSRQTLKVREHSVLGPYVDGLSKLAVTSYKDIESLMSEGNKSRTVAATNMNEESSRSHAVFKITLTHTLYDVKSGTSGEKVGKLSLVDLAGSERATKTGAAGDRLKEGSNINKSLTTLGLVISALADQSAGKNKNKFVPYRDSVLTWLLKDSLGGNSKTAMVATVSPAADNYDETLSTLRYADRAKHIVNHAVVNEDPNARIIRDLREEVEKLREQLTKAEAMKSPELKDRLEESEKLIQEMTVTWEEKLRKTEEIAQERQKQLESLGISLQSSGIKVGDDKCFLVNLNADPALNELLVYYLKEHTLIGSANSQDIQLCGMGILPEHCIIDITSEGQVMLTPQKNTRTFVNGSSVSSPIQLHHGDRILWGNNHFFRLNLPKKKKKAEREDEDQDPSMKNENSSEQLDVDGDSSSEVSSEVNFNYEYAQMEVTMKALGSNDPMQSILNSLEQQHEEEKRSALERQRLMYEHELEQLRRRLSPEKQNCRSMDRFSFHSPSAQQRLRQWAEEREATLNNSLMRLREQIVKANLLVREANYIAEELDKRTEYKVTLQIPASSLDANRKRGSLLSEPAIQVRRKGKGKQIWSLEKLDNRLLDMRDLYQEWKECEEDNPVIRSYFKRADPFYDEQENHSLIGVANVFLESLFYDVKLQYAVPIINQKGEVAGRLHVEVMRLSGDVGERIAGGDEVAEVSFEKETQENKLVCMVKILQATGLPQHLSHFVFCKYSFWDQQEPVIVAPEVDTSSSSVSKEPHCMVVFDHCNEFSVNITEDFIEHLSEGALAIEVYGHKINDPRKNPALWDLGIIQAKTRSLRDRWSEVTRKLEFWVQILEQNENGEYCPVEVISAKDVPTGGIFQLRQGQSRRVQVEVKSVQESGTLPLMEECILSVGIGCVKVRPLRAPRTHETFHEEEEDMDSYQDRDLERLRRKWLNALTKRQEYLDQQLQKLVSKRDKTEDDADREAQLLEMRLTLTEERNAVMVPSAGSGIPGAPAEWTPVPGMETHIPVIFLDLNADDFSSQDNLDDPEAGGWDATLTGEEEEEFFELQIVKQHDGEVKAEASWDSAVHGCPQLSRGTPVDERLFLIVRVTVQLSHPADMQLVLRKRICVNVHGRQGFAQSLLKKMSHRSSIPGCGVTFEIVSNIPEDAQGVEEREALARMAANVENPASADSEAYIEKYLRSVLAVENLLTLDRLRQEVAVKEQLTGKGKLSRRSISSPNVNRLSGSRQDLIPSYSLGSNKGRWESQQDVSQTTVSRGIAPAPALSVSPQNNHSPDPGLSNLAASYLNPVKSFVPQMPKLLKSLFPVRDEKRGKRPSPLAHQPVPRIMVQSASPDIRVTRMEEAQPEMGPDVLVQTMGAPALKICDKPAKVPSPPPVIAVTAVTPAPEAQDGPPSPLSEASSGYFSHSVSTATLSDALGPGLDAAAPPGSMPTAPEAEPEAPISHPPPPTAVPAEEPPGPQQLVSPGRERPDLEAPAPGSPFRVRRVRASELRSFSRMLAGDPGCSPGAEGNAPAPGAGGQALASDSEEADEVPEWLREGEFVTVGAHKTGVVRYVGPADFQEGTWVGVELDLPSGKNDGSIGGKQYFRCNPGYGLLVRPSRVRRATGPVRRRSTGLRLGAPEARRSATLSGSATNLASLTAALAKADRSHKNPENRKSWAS

Biological target: full-length human KIF13B (wild type), C-terminal sfGFP-StrepII (human) (UniProt Q9NQT8)
Assay: mass photometry; 5, 25 and 100 nM protein in HP buffer (90 mM HEPES, 10 mM PIPES, 50 mM K-acetate, 2 mM Mg-acetate, 1 mM EGTA, 10% glycerol, pH 7.0), room temperature; result told over the whole range; monomer to dimer; both purified

- binding: binds weakly
Substance: full-length human KIF13B (wild type), C-terminal sfGFP-StrepII (from UniProt Q9NQT8 1-1826)
